Reference: the supplement of paper PMC12823440, “Inhibitors supercharge kinase turnover through native proteolytic circuits” (Nature, 2025)
The list shows a part of the results. The calls rarely recur for the same compound in another form.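 Kinases, fused to nanoluciferase, were expressed in K562 cells; luminescence was measured every 4 h from 2 to 18 h as percent of control (DMSO = 100%, positive control = 0%). A time point is decreased if signal falls significantly (2 sigma). Hits were called by the authors by a rule that is not shown; the count of time points alone does not decide it.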

Amino acid sequences for entries named in this document (tags omitted). A change or cut given only in a name is not applied to a line headed by its entry.
UniProt P28482, whole entry: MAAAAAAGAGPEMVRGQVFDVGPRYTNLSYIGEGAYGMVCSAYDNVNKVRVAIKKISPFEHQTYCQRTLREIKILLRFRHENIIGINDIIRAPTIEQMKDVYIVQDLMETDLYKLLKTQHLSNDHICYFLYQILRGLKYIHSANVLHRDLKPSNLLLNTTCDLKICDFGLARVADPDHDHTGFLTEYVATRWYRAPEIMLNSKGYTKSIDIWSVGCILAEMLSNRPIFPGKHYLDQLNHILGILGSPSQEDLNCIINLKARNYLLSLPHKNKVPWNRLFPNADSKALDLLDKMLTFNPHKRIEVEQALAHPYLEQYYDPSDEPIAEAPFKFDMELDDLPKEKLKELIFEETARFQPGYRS
UniProt P31152, whole entry: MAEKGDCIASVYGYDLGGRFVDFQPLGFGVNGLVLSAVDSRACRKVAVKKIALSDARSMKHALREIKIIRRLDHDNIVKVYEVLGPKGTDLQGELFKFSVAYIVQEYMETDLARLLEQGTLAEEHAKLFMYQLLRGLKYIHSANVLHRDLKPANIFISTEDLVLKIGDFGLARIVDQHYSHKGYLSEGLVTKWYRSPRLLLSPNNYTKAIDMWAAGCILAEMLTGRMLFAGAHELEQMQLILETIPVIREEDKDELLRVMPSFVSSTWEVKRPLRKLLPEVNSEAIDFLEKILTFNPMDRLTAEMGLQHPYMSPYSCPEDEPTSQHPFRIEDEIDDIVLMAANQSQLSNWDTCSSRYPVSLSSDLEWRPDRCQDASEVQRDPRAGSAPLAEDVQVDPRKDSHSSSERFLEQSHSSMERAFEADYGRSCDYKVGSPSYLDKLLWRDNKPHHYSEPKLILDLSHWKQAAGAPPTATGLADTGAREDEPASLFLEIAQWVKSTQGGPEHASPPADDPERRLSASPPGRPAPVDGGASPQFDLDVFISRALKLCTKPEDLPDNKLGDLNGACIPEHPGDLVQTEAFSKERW
UniProt P49137, whole entry, looked up: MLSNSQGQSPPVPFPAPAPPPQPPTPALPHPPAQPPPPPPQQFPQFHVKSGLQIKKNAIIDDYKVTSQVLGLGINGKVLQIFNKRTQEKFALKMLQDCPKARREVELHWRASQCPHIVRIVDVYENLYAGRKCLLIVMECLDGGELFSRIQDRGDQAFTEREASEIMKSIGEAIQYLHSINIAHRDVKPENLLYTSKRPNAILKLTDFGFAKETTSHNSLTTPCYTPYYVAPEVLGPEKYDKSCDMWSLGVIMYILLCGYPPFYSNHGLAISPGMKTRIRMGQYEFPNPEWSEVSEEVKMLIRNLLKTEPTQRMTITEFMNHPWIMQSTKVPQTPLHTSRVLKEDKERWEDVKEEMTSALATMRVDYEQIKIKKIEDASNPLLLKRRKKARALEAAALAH
UniProt O96013: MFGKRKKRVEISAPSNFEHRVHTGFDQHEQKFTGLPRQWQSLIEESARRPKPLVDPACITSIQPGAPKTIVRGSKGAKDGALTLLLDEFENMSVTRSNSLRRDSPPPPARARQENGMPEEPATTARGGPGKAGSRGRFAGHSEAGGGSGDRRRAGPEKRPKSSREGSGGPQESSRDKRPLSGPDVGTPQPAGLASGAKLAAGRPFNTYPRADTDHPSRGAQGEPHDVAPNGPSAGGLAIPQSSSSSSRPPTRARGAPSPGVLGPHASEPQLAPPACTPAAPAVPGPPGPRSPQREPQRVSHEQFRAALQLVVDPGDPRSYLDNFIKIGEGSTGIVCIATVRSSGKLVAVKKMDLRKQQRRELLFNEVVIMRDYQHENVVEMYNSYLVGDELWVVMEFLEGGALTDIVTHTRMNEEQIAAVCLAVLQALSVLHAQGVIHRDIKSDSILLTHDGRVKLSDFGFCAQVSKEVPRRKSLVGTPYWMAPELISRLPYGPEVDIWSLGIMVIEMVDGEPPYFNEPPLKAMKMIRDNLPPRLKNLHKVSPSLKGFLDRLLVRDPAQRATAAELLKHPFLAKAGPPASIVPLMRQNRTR
UniProt Q96KB5: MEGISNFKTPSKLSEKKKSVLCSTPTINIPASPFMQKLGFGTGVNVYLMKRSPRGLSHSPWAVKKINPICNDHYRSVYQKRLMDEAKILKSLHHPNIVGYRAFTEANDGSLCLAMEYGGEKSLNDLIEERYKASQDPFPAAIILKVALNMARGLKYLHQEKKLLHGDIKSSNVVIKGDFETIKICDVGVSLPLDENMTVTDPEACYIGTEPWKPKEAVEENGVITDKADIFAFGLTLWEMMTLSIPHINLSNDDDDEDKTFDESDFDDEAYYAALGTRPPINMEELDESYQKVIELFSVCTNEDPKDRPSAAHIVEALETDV
UniProt Q15118, whole entry, looked up: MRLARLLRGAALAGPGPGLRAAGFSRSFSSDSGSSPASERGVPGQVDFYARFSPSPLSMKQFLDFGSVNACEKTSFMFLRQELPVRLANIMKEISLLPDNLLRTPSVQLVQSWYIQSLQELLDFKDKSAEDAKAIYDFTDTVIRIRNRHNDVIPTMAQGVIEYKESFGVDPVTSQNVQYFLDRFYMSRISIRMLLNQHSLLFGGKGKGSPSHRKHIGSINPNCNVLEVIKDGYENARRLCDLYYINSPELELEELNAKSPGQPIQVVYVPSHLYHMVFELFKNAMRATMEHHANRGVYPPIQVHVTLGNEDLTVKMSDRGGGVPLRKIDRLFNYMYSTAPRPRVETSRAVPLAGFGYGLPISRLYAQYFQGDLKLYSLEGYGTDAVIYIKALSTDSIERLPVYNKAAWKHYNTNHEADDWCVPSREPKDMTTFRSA
UniProt O15530: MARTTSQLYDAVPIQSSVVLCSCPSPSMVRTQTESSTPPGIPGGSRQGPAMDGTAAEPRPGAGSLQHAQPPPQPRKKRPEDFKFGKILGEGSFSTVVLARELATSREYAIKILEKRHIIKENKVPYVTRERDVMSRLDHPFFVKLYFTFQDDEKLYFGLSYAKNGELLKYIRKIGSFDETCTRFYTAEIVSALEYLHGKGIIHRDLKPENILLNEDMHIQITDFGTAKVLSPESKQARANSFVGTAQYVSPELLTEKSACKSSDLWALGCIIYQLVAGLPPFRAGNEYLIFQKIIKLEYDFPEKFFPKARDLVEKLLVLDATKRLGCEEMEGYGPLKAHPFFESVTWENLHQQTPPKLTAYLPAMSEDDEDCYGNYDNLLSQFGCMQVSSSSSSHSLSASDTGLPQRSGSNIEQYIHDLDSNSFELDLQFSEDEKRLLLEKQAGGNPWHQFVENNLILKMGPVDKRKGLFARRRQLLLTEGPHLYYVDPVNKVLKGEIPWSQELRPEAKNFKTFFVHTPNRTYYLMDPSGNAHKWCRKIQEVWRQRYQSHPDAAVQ
UniProt P42356, whole entry, looked up: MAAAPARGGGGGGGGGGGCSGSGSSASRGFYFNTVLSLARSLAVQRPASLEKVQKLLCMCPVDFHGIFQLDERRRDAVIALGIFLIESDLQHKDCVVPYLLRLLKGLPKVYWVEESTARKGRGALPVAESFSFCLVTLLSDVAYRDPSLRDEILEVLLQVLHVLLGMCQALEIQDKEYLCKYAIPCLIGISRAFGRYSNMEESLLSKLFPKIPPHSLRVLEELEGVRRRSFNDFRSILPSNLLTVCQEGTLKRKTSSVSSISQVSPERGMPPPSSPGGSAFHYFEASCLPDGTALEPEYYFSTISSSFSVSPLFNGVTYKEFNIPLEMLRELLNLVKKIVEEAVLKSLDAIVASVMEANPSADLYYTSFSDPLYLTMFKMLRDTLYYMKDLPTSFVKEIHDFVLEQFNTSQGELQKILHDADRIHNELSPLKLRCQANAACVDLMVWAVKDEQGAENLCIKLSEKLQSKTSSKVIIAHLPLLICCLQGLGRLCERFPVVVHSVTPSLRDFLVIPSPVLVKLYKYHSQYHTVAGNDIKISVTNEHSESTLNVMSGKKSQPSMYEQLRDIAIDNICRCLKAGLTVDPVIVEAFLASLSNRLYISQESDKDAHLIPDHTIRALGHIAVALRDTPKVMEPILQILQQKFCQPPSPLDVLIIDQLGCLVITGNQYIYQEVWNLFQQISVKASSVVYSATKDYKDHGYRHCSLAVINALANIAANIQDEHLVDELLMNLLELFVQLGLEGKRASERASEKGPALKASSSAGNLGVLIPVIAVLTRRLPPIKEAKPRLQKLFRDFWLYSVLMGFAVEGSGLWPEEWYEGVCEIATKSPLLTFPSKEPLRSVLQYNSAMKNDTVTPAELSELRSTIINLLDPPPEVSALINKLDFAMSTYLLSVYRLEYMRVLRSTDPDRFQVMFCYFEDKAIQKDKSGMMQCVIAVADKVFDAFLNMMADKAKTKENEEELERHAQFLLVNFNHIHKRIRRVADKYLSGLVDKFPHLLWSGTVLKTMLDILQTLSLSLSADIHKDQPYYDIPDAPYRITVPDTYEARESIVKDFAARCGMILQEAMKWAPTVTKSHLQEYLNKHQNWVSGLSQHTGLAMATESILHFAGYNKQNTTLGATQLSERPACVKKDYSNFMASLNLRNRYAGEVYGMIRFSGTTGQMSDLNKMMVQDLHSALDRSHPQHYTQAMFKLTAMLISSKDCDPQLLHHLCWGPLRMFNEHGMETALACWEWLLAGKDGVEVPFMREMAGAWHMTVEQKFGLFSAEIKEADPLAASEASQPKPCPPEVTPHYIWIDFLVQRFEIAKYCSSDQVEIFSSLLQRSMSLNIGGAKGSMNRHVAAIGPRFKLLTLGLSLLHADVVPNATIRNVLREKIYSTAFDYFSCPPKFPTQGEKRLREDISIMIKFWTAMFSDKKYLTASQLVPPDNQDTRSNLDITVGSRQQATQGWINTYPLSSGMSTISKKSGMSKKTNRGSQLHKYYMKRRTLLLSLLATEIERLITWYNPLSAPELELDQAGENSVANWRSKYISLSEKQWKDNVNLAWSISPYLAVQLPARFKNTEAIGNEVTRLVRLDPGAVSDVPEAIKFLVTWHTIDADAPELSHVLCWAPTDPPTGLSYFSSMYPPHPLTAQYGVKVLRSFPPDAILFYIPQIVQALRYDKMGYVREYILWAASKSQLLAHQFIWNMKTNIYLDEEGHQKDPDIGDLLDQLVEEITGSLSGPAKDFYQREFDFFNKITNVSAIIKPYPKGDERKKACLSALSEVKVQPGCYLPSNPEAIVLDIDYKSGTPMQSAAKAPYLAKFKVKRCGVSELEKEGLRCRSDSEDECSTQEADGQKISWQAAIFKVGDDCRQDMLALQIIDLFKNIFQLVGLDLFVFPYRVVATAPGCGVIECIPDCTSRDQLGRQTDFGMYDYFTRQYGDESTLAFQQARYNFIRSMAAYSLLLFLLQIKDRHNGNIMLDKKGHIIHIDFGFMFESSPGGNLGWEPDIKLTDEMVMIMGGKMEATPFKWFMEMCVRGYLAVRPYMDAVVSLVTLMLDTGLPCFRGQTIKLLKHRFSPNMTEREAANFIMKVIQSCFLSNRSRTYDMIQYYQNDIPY
UniProt P53350, whole entry: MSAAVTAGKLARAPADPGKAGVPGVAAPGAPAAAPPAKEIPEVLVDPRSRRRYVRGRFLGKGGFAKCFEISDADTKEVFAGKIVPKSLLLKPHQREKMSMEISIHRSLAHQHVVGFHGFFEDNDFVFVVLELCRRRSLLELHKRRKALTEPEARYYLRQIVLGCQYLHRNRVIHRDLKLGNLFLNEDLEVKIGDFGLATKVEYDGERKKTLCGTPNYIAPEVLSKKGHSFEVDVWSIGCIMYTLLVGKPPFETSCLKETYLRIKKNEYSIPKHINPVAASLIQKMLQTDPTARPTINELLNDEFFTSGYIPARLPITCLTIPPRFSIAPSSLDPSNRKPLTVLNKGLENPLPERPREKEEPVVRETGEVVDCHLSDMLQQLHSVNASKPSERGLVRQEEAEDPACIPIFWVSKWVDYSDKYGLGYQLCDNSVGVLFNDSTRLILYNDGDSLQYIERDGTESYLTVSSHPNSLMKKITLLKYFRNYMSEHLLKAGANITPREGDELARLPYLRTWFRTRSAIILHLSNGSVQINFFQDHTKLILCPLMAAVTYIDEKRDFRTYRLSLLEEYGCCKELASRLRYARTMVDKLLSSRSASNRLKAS
UniProt Q13131: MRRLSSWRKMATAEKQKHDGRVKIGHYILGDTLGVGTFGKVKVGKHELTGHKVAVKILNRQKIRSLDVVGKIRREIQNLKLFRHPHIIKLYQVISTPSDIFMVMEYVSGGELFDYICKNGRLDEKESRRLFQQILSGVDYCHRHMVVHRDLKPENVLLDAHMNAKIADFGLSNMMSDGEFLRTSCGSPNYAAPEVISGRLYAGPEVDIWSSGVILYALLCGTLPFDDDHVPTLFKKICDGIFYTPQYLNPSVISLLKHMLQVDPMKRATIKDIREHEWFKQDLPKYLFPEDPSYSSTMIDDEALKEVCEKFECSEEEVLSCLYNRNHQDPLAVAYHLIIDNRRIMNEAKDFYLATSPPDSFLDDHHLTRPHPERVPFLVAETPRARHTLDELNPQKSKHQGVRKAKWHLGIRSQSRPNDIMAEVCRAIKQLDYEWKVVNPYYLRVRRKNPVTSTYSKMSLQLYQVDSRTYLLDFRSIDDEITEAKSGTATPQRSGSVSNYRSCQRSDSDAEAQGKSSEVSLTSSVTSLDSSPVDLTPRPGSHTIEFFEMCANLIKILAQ

Experiments:
Assay in all cases: number of time points (of 5) at which kinase-Nluc abundance scored as decreased, DMSO-normalised (count); higher = more persistent destabilization
Conditions in all cases: K562; 2-18 h
[1] = molecular target: LMTK2 (UniProt Q8IWU2)
[2] = molecular target: LYN (UniProt P07948)
[3] = molecular target: MAP2K1 (UniProt Q02750)
[4] = molecular target: MAP2K2 (UniProt P36507)
[5] = molecular target: MAP4K2 (UniProt Q12851)
[6] = molecular target: MAPK1 (UniProt P28482)
[7] = molecular target: MAPK4 (UniProt P31152)
[8] = molecular target: MAPKAPK2 (UniProt P49137)
[9] = molecular target: MKNK1 (UniProt Q9BUB5)
[10] = molecular target: NTRK2 (UniProt Q16620)
[11] = molecular target: NTRK3 (UniProt Q16288)
[12] = molecular target: PAK4 (UniProt O96013)
[13] = molecular target: PBK (UniProt Q96KB5)
[14] = molecular target: PDGFRB (UniProt P09619)
[15] = molecular target: PDK1 (UniProt Q15118)
[16] = molecular target: PDPK1 (UniProt O15530)
[17] = molecular target: PIK4CA (UniProt P42356)
[18] = molecular target: PIK4CB (UniProt Q9UBF8)
[19] = molecular target: PLK1 (UniProt P53350)
[20] = molecular target: PRKAA1 (UniProt Q13131)

Measured: number of time points

CO[C@H]1CC[C@H](N2C(=O)CNc3ncc(-c4ccc(C(C)(C)O)nc4)nc32)CC1 (2.5 µM)
0: [1] | [2] | [3] | [4] | [5] | [6] | [7] | [8] | [9] | [10] | [11] | [12] | [13] | [14] | [15] | [16] | [17] | [18] | [19] | [20]

C#Cc1cccc(Nc2ncnc3cc(OC)c(NC(=O)N4C[C@H]5CCN(C)[C@H]5C4)cc23)c1 [Theliatinib] (10 µM)
0: [1] | [2] | [3] | [4] | [5] | [6] | [7] | [8] | [9] | [10] | [11] | [12] | [13] | [14] | [15] | [16] | [17] | [18] | [19] | [20]

C[C@H]1O[C@@H](O[C@H]2CC[C@@]3(C)[C@@H](CC[C@]4(C)[C@@H]3C=C[C@]35OC[C@@]6(CCC(C)(C)C[C@H]63)[C@H](O)C[C@]54C)[C@]2(C)CO)[C@H](O)[C@@H](O[C@@H]2O[C@H](CO)[C@@H](O)[C@H](O)[C@H]2O)[C@H]1O [Saikosaponin D] (2.5 µM)
0: [1] | [2] | [3] | [4] | [5] | [6] | [7] | [8] | [9] | [10] | [11] | [12] | [13] | [14] | [15] | [16] | [17] | [18] | [19] | [20]

COc1ccc2c3n(c(=NC(=O)c4cccnc4)nc2c1OC)CCN3 (2 µM)
0: [1] | [2] | [3] | [4] | [5] | [6] | [7] | [8] | [9] | [10] | [11] | [12] | [13] | [14] | [15] | [16] | [17] | [18] | [19] | [20]

Brc1ccc(CSc2nc3ccccc3o2)cc1 [BMP signaling agonist sb4] (10 µM)
0: [1] | [2] | [3] | [4] | [5] | [6] | [7] | [8] | [9] | [10] | [11] | [12] | [13] | [14] | [15] | [16] | [17] | [18] | [19] | [20]

CC1=C(C(=O)Nc2cc3cn[nH]c3cc2F)C(c2ccc(C(F)(F)F)cc2)CC(=O)N1 (stereo not given) (10 µM)
0: [1] | [2] | [3] | [4] | [5] | [6] | [7] | [8] | [9] | [10] | [11] | [12] | [13] | [14] | [15] | [16] | [17] | [18] | [19] | [20]

Oc1c(F)cc(-c2cnccc2-c2ccc(N3CCOCC3)cc2)cc1F (10 µM)
0: [1] | [2] | [3] | [4] | [5] | [6] | [7] | [8] | [9] | [10] | [11] | [12] | [13] | [14] | [15] | [16] | [17] | [18] | [19] | [20]

Cc1ccc(C)c(OCCn2cc(C(=O)O)c3ccccc32)c1 (10 µM)
0: [1] | [2] | [3] | [4] | [5] | [6] | [7] | [8] | [9] | [10] | [11] | [12] | [13] | [14] | [15] | [16] | [17] | [18] | [19] | [20]

O=C(O)c1ccc(/C=C/S(=O)(=O)Cc2ccc(Cl)cc2)cc1 [Recilisib] (10 µM)
0: [1] | [2] | [3] | [4] | [5] | [6] | [7] | [8] | [9] | [10] | [11] | [12] | [13] | [14] | [15] | [16] | [17] | [18] | [19] | [20]

COc1cc2cc(Oc3ccc4ccc(=O)oc4c3)c(=O)oc2cc1O [Daphnoretin] (10 µM)
0: [1] | [2] | [3] | [4] | [5] | [6] | [7] | [8] | [9] | [10] | [11] | [12] | [13] | [14] | [15] | [16] | [17] | [18] | [19] | [20]

N#Cc1ccc(-c2cnc3[nH]cc(NC(=O)c4cccnc4)c3c2)cc1 (10 µM)
0: [1] | [2] | [3] | [4] | [5] | [6] | [7] | [8] | [9] | [10] | [11] | [12] | [13] | [14] | [15] | [16] | [17] | [18] | [19] | [20]

CC(Sc1nc2c(cnn2-c2cccc(Cl)c2)c(=O)[nH]1)C(N)=O (stereo not given) (10 µM)
0: [1] | [2] | [3] | [4] | [5] | [6] | [7] | [8] | [9] | [10] | [11] | [12] | [13] | [14] | [15] | [16] | [17] | [18] | [19] | [20]

Cc1ccc(NC(=O)Nc2cc(C(F)(F)F)ccc2F)cc1Nc1ccc2c(c1)NC(=O)/C2=C\c1ccc[nH]1 (2.5 µM)
3: [11]
0: [1] | [2] | [3] | [4] | [5] | [6] | [7] | [8] | [9] | [12] | [13] | [14] | [15] | [16] | [17] | [18] | [19] | [20]
1: [10]

O=C(c1cccc(Cl)c1F)N1CCN(Cc2cccc(Nc3nccs3)n2)CC1 (2.5 µM)
1: [1]
0: [2] | [3] | [4] | [5] | [6] | [7] | [8] | [9] | [10] | [11] | [12] | [13] | [14] | [15] | [16] | [17] | [18] | [19] | [20]

CCN(CC)CCOc1ccc(Nc2nc(-c3ccccc3NC(=O)CCN3CCN(C)CC3)nc3ccccc23)cc1 (2.5 µM)
0: [1] | [2] | [3] | [4] | [5] | [6] | [7] | [8] | [9] | [10] | [11] | [12] | [13] | [14] | [15] | [16] | [17] | [18] | [19] | [20]

Cc1ccc(-n2nc(C(C)(C)C)cc2NC(=O)Nc2ccc(OCCN3CCOCC3)cc2)cc1 (10 µM)
0: [1] | [2] | [3] | [4] | [5] | [6] | [7] | [8] | [9] | [10] | [11] | [12] | [13] | [14] | [15] | [16] | [17] | [18] | [19] | [20]

C=CC(=O)N1CCN(C(=O)CNc2cc(I)c(Cl)cc2O)CC1 [K-Ras(G12C) inhibitor 12] (10 µM)
0: [1] | [2] | [3] | [4] | [5] | [6] | [7] | [8] | [9] | [10] | [11] | [12] | [13] | [14] | [15] | [16] | [17] | [18] | [19] | [20]

c1nn(C2CCOCC2)cc1Nc1ncc2nnn(-c3ccc4cn[nH]c4c3)c2n1 (10 µM)
0: [1] | [2] | [3] | [4] | [5] | [6] | [7] | [8] | [9] | [10] | [11] | [12] | [13] | [14] | [15] | [16] | [17] | [18] | [19] | [20]

C=C1CCC[C@]2(C)C=C3OC(=O)C(C)=C3C[C@@H]12 [Atractylenolide I] (10 µM)
0: [1] | [2] | [3] | [4] | [5] | [6] | [7] | [8] | [9] | [10] | [11] | [12] | [13] | [14] | [15] | [16] | [17] | [18] | [19] | [20]

COc1cc2ncnc(Oc3ccc(CC(=O)Nc4cnn(C(C)C)c4)cc3)c2cc1OC (10 µM)
0: [1] | [2] | [3] | [4] | [5] | [6] | [7] | [8] | [9] | [10] | [12] | [13] | [14] | [15] | [17] | [18] | [19] | [20]
1: [16]
3: [11]

Molecules listed so far containing sulfur (four):
Brc1ccc(CSc2nc3ccccc3o2)cc1 [BMP signaling agonist sb4] (10 µM)
0: [1] | [2] | [3] | [4] | [5] | [6] | [7] | [8] | [9] | [10] | [11] | [12] | [13] | [14] | [15] | [16] | [17] | [18] | [19] | [20]

O=C(O)c1ccc(/C=C/S(=O)(=O)Cc2ccc(Cl)cc2)cc1 [Recilisib] (10 µM)
0: [1] | [2] | [3] | [4] | [5] | [6] | [7] | [8] | [9] | [10] | [11] | [12] | [13] | [14] | [15] | [16] | [17] | [18] | [19] | [20]

CC(Sc1nc2c(cnn2-c2cccc(Cl)c2)c(=O)[nH]1)C(N)=O (stereo not given) (10 µM)
0: [1] | [2] | [3] | [4] | [5] | [6] | [7] | [8] | [9] | [10] | [11] | [12] | [13] | [14] | [15] | [16] | [17] | [18] | [19] | [20]

O=C(c1cccc(Cl)c1F)N1CCN(Cc2cccc(Nc3nccs3)n2)CC1 (2.5 µM)
1: [1]
0: [2] | [3] | [4] | [5] | [6] | [7] | [8] | [9] | [10] | [11] | [12] | [13] | [14] | [15] | [16] | [17] | [18] | [19] | [20]

More records follow.

N#Cc1ccc2ncnc(NCCc3ccccc3)c2c1 [Senexin A] (10 µM)
0: [1] | [2] | [3] | [4] | [5] | [6] | [7] | [8] | [9] | [10] | [11] | [12] | [13] | [14] | [15] | [16] | [17] | [18] | [19] | [20]

C=CC(=O)Nc1cccc(Oc2nc(Nc3ccc(N4CCN(C)CC4)c(F)c3)nc3[nH]ccc23)c1 [Avitinib (maleate)] (2.5 µM)
0: [1] | [2] | [3] | [4] | [5] | [6] | [7] | [8] | [9] | [10] | [11] | [12] | [13] | [14] | [15] | [16] | [17] | [18] | [19] | [20]
